# According to PubChem BioAssay AID250 (DTP/NCI, 2004):
# The list does not hold the whole screen: it gathers tests that were run many times, whatever their T/C, doses with no T/C, and many T/C values between a quarter and a half above the control. Other doses and runs of a compound stand elsewhere. T/C is the treated group as % of the vehicle group. Some doses have a count of surviving animals in place of a T/C: the source holds a T/C of zero for them, seemingly a mark for toxic or unscored doses. Some survivor counts are full or nearly so, which does not show that the dose was tolerated: survival well below the control is almost never listed, so the zero probably covers shortened survival too. For some of these results: Counts of survivors are from the toxicity check (mostly the fifth day) where no day follows; animals may have died later. Schedule codes are those of the source, taken here to give the interval after Q, in days (D) or hours (H), and the number of doses after X. Some doses were run more than once; their values stand side by side, smallest first. Marks such as (2×) count equal records among those shown. Some schedules carry Z or #; the key to these is not given. Where survival is the endpoint, this PubChem deposit counts one and a half times the control or more as active, and values a quarter to a half above the control carry no call in these data; other NCI protocols may use other cut-offs. Some T/C values are followed by the survivors on the day toxicity was checked, most often the fifth; where none is given, no animal had died by that day.
# Experiments:
# [1] = tested on: BDF1 mice, L1210 leukemia sc, survival T/C; assay: NCI In Vivo Anticancer Drug Screen. Data for tumor model L1210 Leukemia (subcutaneous) in B6D2F1 (BDF1) mice; settings: T/C endpoint: median survival time, higher T/C = longer survival
# Outline: (§1)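 Read-out: T/C ratio, i.e. survival or tumor size in treated mice over that in vehicle-treated controls, from mice bearing transplantable tumors.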
# [2] = tested on: BDF1 mice, L1210 leukemia sc; assay: as above; settings: T/C endpoint: median survival time, higher T/C = longer survival
# Outline: as §1
# [3] = dose: 10.0 mg/kg/injection, schedule: Q03HX008 (sc), vehicle: saline, evaluated on day 60
# [4] = dose: 20.0 mg/kg/injection, schedule: Q03HX008 (sc), vehicle: saline, evaluated on day 60
# [5] = dose: 40.0 mg/kg/injection, schedule: Q03HX008 (sc), vehicle: saline, evaluated on day 60
# [6] = dose: 50.0 mg/kg/injection, schedule: Q01DX001 (sc), vehicle: saline, evaluated on day 60
# [7] = dose: 100.0 mg/kg/injection, schedule: Q01DX001 (sc), vehicle: saline, evaluated on day 60
# [8] = dose: 3.0 mg/kg/injection, schedule: Q03HX008 (sc), vehicle: water
structure (smiles),measurement,setting,value
CC1CCC(NC(=O)N(CCCl)N=O)CC1 (configuration not stated),T/C,"[1]; dose: 10.0 mg/kg/injection, schedule: Q03HX008 (sc), vehicle: saline, evaluated on day 7",638 % of control
same,T/C,"[1]; dose: 10.0 mg/kg/injection, schedule: Q03HX008 (sc), vehicle: saline, evaluated on day 9",193 % of control
same,T/C,[1]; [3],666 % of control
same,T/C,[1]; [4],175 % of control [6 of 8 alive]
same,T/C,"[1]; dose: 25.0 mg/kg/injection, schedule: Q01DX001 (sc), vehicle: saline, evaluated on day 7",121 % of control
same,T/C,"[1]; dose: 25.0 mg/kg/injection, schedule: Q01DX001 (sc), vehicle: saline, evaluated on day 9",115 % of control
same,T/C,"[1]; dose: 25.0 mg/kg/injection, schedule: Q01DX001 (sc), vehicle: saline, evaluated on day 60",110 [6 of 8 alive] and 122 % of control
same,T/C,"[1]; dose: 40.0 mg/kg/injection, schedule: Q03HX008 (sc), vehicle: saline, evaluated on day 7",99 % of control
same,T/C,"[1]; dose: 40.0 mg/kg/injection, schedule: Q03HX008 (sc), vehicle: saline, evaluated on day 9",120 % of control
same,T/C,[1]; [5],100 % of control
same,T/C,"[1]; dose: 50.0 mg/kg/injection, schedule: Q01DX001 (sc), vehicle: saline, evaluated on day 7",244 % of control
same,T/C,"[1]; dose: 50.0 mg/kg/injection, schedule: Q01DX001 (sc), vehicle: saline, evaluated on day 9",153 % of control
same,T/C,[1]; [6],222 % of control
same,T/C,"[1]; dose: 100.0 mg/kg/injection, schedule: Q01DX001 (sc), vehicle: saline, evaluated on day 7",636 % of control
same,T/C,[1]; [7],666 % of control
same,T/C,"[1]; dose: 200.0 mg/kg/injection, schedule: Q01DX001 (sc), vehicle: saline, evaluated on day 7",108 % of control
same,T/C,"[1]; dose: 200.0 mg/kg/injection, schedule: Q01DX001 (sc), vehicle: saline, evaluated on day 9",608 % of control
same,T/C,"[1]; dose: 200.0 mg/kg/injection, schedule: Q01DX001 (sc), vehicle: saline, evaluated on day 60",111 and 490 % of control
same,T/C,"[2]; dose: 5.0 mg/kg/injection, schedule: Q03HX008 (sc), vehicle: saline",135 % of control
same,T/C,[2]; [3],130 % of control [7 of 8 alive]
same,T/C,"[2]; dose: 20.0 mg/kg/injection, schedule: Q03HX008 (sc), vehicle: saline, evaluated on day 7",125 % of control
same,T/C,"[2]; dose: 20.0 mg/kg/injection, schedule: Q03HX008 (sc), vehicle: saline, evaluated on day 9",133 % of control
same,T/C,[2]; [4],127 % of control
same,T/C,[2]; [5],130 % of control [7 of 8 alive]
same,T/C,[2]; [6],140 % of control [7 of 8 alive]
same,T/C,"[2]; dose: 100.0 mg/kg/injection, schedule: Q01DX001 (sc), vehicle: saline, evaluated on day 9",142 % of control
same,T/C,[2]; [7],135 % of control [6 of 8 alive]
Nc1n[nH]c(N)n1,survivor count,"[1]; dose: 833.0 mg/kg/injection, schedule: Q03HX024 (ip), vehicle: water",4 of 8
same,T/C,"[2]; dose: 300.0 mg/kg/injection, schedule: Q03HX024 (ip), vehicle: water",133 % of control
same,T/C,"[2]; dose: 300.0 mg/kg/injection, schedule: Q03HX024 (sc), vehicle: water",133 % of control
same,T/C,"[2]; dose: 500.0 mg/kg/injection, schedule: Q03HX024 (sc), vehicle: none",140 % of control
same,T/C,"[2]; dose: 500.0 mg/kg/injection, schedule: Q08DX009 (sc), vehicle: none",130 % of control
same,T/C,"[2]; dose: 833.0 mg/kg/injection, schedule: Q03HX024 (sc), vehicle: water",127 % of control [6 of 8 alive]
same,T/C,"[2]; dose: 1200.0 mg/kg/injection, schedule: Q01DX Z (sc), vehicle: water",127 % of control
same,T/C,"[2]; dose: 2000.0 mg/kg/injection, schedule: Q08DX009 (sc), vehicle: none",135 % of control
CCC(=O)NC1=C(N2CC2)C(=O)C(NC(=O)CC)=C(N2CC2)C1=O,survivor count,"[1]; dose: 0.65 mg/kg/injection, schedule: Q01DX Z (sc), vehicle: methylcellulose (MC)",4 of 10
same,T/C,"[2]; dose: 3.0 mg/kg/injection, schedule: Q01DX Z (sc), vehicle: methylcellulose (MC)",125 % of control [8 of 10 alive]
same,T/C,"[2]; dose: 5.0 mg/kg/injection, schedule: Q01DX Z (sc), vehicle: methylcellulose (MC)",130 % of control [8 of 10 alive]
same,T/C,"[2]; dose: 8.4 mg/kg/injection, schedule: Q01DX Z (sc), vehicle: methylcellulose (MC)",130 % of control
same,T/C,"[2]; dose: 14.0 mg/kg/injection, schedule: Q01DX Z (sc), vehicle: methylcellulose (MC)",130 % of control
COc1cccc2c1C(=O)c1c(O)c3c(c(O)c1C2=O)C[C@@](O)(C(=O)CO)C[C@@H]3OC1CC(N)C(O)C(C)O1 (some centres not stated),T/C,"[1]; dose: 0.65 mg/kg/injection, schedule: Q03HX008 (sc), vehicle: water, evaluated on day 23",111 % of control
same,T/C,"[1]; dose: 0.65 mg/kg/injection, schedule: Q03HX008 (sc), vehicle: water, evaluated on day 30",100 % of control
same,T/C,"[1]; dose: 0.65 mg/kg/injection, schedule: Q03HX008 (sc), vehicle: water, evaluated on day 31",122 % of control
same,T/C,"[1]; dose: 0.65 mg/kg/injection, schedule: Q03HX008 (sc), vehicle: water, evaluated on day 35",100 % of control
same,T/C,"[1]; dose: 1.08 mg/kg/injection, schedule: Q03HX008 (sc), vehicle: water, evaluated on day 23",111 % of control
same,T/C,"[1]; dose: 1.08 mg/kg/injection, schedule: Q03HX008 (sc), vehicle: water, evaluated on day 30",100 % of control
same,T/C,"[1]; dose: 1.08 mg/kg/injection, schedule: Q03HX008 (sc), vehicle: water, evaluated on day 35",105 % of control
same,survivor count,"[1]; dose: 1.8 mg/kg/injection, schedule: Q03HX008 (ip), vehicle: water",8 of 8
same,T/C,"[1]; dose: 1.8 mg/kg/injection, schedule: Q03HX008 (sc), vehicle: water, evaluated on day 30",122 % of control
same,T/C,"[1]; dose: 1.8 mg/kg/injection, schedule: Q03HX008 (sc), vehicle: water, evaluated on day 31",116 % of control
same,T/C,"[1]; dose: 1.8 mg/kg/injection, schedule: Q03HX008 (sc), vehicle: water, evaluated on day 35",110 % of control
same,survivor count,"[1]; dose: 3.0 mg/kg/injection, schedule: Q01DX005 (ip), vehicle: water",8 of 8
same,survivor count,"[1]; dose: 3.0 mg/kg/injection, schedule: Q03HX008 (ip), vehicle: water",7 of 8 (2×) and 10 of 10
same,T/C,[1]; [8],94 % of control
same,survivor count,[1]; [8],10 of 10 (2×) and 8 of 8
same,survivor count,"[1]; dose: 5.0 mg/kg/injection, schedule: Q01DX005 (ip), vehicle: water",8 of 8
same,survivor count,"[1]; dose: 5.0 mg/kg/injection, schedule: Q01DX005 (sc), vehicle: water",8 of 8
same,survivor count,"[1]; dose: 16.0 mg/kg/injection, schedule: Q04DX003 (ip), vehicle: saline",6 of 10
same,survivor count,"[1]; dose: 23.0 mg/kg/injection, schedule: Q01DX001 (iv), vehicle: water",5 of 8
same,survivor count,"[1]; dose: 23.0 mg/kg/injection, schedule: Q01DX001 (sc), vehicle: water",9 of 10
same,T/C,"[2]; dose: 1.08 mg/kg/injection, schedule: Q03HX008 (sc), vehicle: water, evaluated on day 31",133 % of control
same,T/C,"[2]; dose: 1.8 mg/kg/injection, schedule: Q03HX008 (sc), vehicle: water, evaluated on day 23",127 % of control
same,T/C,"[2]; dose: 8.4 mg/kg/injection, schedule: Q01DX001 (iv), vehicle: water",125 % of control
same,T/C,"[2]; dose: 8.4 mg/kg/injection, schedule: Q01DX001 (sc), vehicle: water",133 % of control
same,T/C,"[2]; dose: 8.4 mg/kg/injection, schedule: Q04DX003 (sc), vehicle: water",138 % of control
same,T/C,"[2]; dose: 14.0 mg/kg/injection, schedule: Q01DX001 (iv), vehicle: water, evaluated on day 5",143 % of control
same,T/C,"[2]; dose: 14.0 mg/kg/injection, schedule: Q01DX001 (iv), vehicle: water, evaluated on day 34",138 % of control
